PubChem BioAssay AID602196 – INSERM | 2012

Assay: 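Knock-downs that protect lung cancer cells from cisplatin or sensitise them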
Cell system: human A549 lung cancer cells
Reagents: siRNA pair against human genes
Timing: 48 h transfection before cisplatin; time from cisplatin to read-out not stated
Treatment: cisplatin at a dose killing half of control-siRNA cells; exact dose and duration not given
Measurement: 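Shift in cisplatin death relative to control siRNA, from -50 (all cells die) to +50 (no cells die); siRNAs harmful on their own scored 0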
Reading the numbers: two-siRNA summed score (-2 to +2): higher = both siRNAs protect from cisplatin killing; -2 means both sensitise; mean protection from cisplatin (shift in death) and protection from cisplatin (shift in death), siRNA C: higher = protection from cisplatin killing
Rule for the call: 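Each siRNA scores 0 if harmful alone by LDH or WST-1, otherwise +1 if it reduces and -1 if it increases cisplatin killing; a gene is active when both siRNAs agree (sum +2 or -2)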
Meaning of the calls: active = both siRNAs shift cisplatin killing the same way; inactive = no consistent shift, or siRNA harmful alone
This is one part, drawn at random, of about 23,000 deposited reagents. 455 of them (2%) were called active. 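Active includes both protection and sensitisation; some change values fall well beyond the stated -50 to +50 range.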 Not all columns of the deposit are shown. Not given: the amount of reagent.

no.	Target gene	two-siRNA summed score (-2 to +2)	mean protection from cisplatin (shift in death) (%)	protection from cisplatin (shift in death), siRNA C (%)	outcome
1	RAI2	0	7.4	4.9	inactive
2	LOC441756	1	29.3	44.6	inactive
3	ASB4	0	-25.8	-21.4	inactive
4	UBE2NL	0	9.5	8.9	inactive
5	PDIA4	0	-4.2	5.5	inactive
6	SVBP	0	31.1	23.9	inactive
7	ANLN	0	-0.1	10.5	inactive
8	PPRC1	0	-22.5	-10.2	inactive
9	MRPL14	1	9.1	3.7	inactive
10	SYNGAP1	0	28.2	29.3	inactive
11	LOC391769	0	-3.7	-9.6	inactive
12	LOC402214	0	7.2	9	inactive
13	OR13C8	1	7.2	18.4	inactive
14	PMS2	0	6.4	6.5	inactive
15	SH3GL2	0	-6.8	-11.9	inactive
16	OFCC1	0	7	5.5	inactive
17	LOC285679	0	25.6	12.8	inactive
18	C1orf56	0	11.8	6	inactive
19	POLR3A	1	5.2	8	inactive
20	LOC338756	1	21.1	29.5	inactive
21	ALX4	-1	-9.6	-23.2	inactive
22	LOC389370	0	11	7.9	inactive
23	H1-2	1	10.9	0.3	inactive
24	ACLY	1	10.3	12.8	inactive
25	NUDT14	0	-8	-12.1	inactive
26	MRPS5	0	-1.1	-3.4	inactive
27	CLMN	0	9.3	11.7	inactive
28	PJA1	0	-1.2	2.5	inactive
29	GABRG2	-1	-6.1	-22.6	inactive
30	LOC341346	0	6.1	3	inactive
31	COMMD10	0	1.4	4.6	inactive
32	VWC2	0	7.9	11	inactive
33	SAMD1	0	-0.5	-2.2	inactive
34	LOC388116	-1	-3.9	-14.7	inactive
35	PHYHIPL	0	9.9	8.1	inactive
36	SMTNL1	1	13	5.1	inactive
37	MAP1LC3C	-1	-6.9	1.1	inactive

Part of the list above, reformatted:
{"Target gene": "LOC389370", "two-siRNA summed score (-2 to +2)": 0, "mean protection from cisplatin (shift in death) (%)": 11, "protection from cisplatin (shift in death), siRNA C (%)": 7.9, "outcome": "inactive"}
{"Target gene": "H1-2", "two-siRNA summed score (-2 to +2)": 1, "mean protection from cisplatin (shift in death) (%)": 10.9, "protection from cisplatin (shift in death), siRNA C (%)": 0.3, "outcome": "inactive"}
{"Target gene": "ACLY", "two-siRNA summed score (-2 to +2)": 1, "mean protection from cisplatin (shift in death) (%)": 10.3, "protection from cisplatin (shift in death), siRNA C (%)": 12.8, "outcome": "inactive"}
{"Target gene": "NUDT14", "two-siRNA summed score (-2 to +2)": 0, "mean protection from cisplatin (shift in death) (%)": -8, "protection from cisplatin (shift in death), siRNA C (%)": -12.1, "outcome": "inactive"}
{"Target gene": "MRPS5", "two-siRNA summed score (-2 to +2)": 0, "mean protection from cisplatin (shift in death) (%)": -1.1, "protection from cisplatin (shift in death), siRNA C (%)": -3.4, "outcome": "inactive"}
{"Target gene": "CLMN", "two-siRNA summed score (-2 to +2)": 0, "mean protection from cisplatin (shift in death) (%)": 9.3, "protection from cisplatin (shift in death), siRNA C (%)": 11.7, "outcome": "inactive"}

The list goes on.
no.	Target gene	two-siRNA summed score (-2 to +2)	mean protection from cisplatin (shift in death) (%)	protection from cisplatin (shift in death), siRNA C (%)	outcome
38	PACRG	0	1.5	0.2	inactive
39	TRIM45	1	13.3	10.7	inactive
40	TMEM45A	0	-3.6	3.5	inactive
41	ENDOU	0	0.3	-6	inactive
42	LOC285444	0	-4.1	-7.3	inactive
43	MICU2	-1	-3.5	7.4	inactive
44	TMEM9B	0	-12.8	-19.8	inactive
45	PA2G4	0	7.2	1.8	inactive
46	SNAPC1	1	8.4	5.4	inactive
47	ECT2	0	4.5	-4.4	inactive
48	MYL9	-1	-10.9	-14.9	inactive
49	PDCD1LG2	0	6.6	-5.1	inactive
50	FAAH	0	12.4	14.2	inactive
51	ETNK2	0	1	0.7	inactive
52	SPG7	0	1.6	1.1	inactive
53	DCAF11	0	8.7	14.9	inactive
54	LOC344227	-1	-9	-16.6	inactive
55	BSN	-2	-16	-15.5	active
56	FOXS1	1	8.4	-5.1	inactive
57	PURB	0	-1.6	-4.3	inactive
